Test results reported in the supplement of paper PMC10849652.
The other results are listed elsewhere or left out.

The chains behind the UniProt entries cited, without tags or fusion partners. Where a name states a change or a piece, a line headed by the entry shows the natural chain unless it says otherwise.
UniProt O14737: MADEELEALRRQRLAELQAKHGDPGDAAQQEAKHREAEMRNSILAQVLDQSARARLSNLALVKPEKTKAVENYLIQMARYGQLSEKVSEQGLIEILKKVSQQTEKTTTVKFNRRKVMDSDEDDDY
UniProt O60925, whole entry, looked up: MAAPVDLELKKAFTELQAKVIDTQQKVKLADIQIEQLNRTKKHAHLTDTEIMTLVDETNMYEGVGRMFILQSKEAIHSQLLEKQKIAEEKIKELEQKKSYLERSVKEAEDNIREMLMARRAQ
UniProt P50479: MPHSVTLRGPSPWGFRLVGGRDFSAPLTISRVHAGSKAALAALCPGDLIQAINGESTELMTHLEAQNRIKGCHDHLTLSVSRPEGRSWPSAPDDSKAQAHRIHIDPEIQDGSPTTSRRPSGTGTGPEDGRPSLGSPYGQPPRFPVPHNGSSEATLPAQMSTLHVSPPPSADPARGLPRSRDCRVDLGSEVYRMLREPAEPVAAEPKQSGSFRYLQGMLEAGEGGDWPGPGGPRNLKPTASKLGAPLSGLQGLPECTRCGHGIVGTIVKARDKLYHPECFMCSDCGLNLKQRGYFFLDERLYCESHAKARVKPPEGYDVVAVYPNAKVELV
UniProt Q8NBM8: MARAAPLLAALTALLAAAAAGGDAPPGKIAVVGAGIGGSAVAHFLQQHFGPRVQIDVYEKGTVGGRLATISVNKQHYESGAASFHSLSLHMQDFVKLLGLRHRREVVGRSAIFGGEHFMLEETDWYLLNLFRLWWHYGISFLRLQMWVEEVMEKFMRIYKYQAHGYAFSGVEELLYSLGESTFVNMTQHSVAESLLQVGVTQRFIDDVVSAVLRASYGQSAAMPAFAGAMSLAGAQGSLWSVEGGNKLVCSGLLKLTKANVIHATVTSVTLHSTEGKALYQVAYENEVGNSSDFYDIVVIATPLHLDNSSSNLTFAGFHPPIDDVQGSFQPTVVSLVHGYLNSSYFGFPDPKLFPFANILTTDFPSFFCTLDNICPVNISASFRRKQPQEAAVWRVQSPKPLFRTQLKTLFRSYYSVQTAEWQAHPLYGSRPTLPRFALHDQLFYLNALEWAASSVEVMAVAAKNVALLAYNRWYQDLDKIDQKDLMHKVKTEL
UniProt Q5JVF3: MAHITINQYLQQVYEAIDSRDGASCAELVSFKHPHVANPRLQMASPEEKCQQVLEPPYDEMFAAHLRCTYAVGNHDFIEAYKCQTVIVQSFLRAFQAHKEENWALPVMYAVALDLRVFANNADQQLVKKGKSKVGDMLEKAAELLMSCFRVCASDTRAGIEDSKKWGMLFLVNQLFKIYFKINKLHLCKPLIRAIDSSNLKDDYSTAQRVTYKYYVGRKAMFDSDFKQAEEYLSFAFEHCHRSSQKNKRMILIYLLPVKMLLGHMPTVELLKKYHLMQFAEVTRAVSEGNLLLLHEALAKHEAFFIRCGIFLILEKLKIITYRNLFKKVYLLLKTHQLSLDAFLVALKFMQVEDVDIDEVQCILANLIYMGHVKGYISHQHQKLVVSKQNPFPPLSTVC
UniProt Q8N165: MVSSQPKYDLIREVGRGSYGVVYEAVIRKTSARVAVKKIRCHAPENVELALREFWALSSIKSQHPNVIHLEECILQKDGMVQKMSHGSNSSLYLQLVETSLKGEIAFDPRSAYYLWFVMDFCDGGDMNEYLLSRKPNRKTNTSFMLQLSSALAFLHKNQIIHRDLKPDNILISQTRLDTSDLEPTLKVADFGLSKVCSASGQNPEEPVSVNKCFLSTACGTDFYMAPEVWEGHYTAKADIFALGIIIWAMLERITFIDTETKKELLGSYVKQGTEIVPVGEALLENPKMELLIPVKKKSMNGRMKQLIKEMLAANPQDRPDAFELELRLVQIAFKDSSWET
UniProt Q9H0J9: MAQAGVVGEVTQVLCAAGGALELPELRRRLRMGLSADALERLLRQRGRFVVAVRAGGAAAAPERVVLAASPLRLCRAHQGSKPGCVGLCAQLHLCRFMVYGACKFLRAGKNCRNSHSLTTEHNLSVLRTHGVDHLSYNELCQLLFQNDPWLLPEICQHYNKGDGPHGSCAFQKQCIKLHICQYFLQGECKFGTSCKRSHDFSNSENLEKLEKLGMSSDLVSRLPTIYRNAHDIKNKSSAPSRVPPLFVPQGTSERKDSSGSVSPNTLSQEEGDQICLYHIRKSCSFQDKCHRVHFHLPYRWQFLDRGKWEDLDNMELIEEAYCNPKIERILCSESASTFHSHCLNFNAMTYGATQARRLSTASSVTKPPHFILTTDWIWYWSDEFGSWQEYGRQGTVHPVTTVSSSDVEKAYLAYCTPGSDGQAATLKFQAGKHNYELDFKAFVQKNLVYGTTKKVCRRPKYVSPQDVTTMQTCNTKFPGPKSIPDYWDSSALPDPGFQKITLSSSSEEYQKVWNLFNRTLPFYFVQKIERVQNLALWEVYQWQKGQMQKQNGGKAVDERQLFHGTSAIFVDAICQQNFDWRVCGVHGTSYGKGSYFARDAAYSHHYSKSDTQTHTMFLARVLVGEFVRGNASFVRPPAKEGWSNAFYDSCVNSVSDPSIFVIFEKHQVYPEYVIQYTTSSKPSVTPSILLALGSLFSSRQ
UniProt Q9P0J1: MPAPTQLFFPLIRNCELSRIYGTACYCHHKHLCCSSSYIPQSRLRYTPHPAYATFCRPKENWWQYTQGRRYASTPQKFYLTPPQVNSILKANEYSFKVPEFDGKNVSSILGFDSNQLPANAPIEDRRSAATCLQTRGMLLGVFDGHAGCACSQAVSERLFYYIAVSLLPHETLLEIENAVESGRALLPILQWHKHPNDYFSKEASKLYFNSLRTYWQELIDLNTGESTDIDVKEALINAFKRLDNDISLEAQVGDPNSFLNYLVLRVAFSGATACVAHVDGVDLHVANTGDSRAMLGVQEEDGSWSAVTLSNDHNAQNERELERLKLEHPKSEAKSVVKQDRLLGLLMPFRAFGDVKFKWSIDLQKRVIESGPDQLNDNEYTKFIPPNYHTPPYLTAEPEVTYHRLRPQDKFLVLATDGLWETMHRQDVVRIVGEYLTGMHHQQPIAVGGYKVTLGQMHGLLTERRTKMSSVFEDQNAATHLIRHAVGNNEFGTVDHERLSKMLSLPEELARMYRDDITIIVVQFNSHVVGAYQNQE
UniProt Q9UGN5: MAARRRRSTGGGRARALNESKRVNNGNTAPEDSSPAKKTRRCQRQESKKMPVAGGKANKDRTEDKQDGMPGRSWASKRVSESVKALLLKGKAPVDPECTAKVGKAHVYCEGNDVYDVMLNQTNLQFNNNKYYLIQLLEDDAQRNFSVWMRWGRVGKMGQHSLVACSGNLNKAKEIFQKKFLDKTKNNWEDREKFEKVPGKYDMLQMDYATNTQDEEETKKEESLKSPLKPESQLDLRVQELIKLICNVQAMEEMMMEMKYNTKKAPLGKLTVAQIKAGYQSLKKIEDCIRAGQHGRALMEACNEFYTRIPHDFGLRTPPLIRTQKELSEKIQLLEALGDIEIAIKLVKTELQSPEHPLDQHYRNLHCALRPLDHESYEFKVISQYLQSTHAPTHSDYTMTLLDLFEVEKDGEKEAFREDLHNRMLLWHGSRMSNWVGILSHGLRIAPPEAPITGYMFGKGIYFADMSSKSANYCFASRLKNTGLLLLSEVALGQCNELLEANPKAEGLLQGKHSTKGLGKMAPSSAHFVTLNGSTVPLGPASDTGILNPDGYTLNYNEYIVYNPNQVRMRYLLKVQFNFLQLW
UniProt O00623: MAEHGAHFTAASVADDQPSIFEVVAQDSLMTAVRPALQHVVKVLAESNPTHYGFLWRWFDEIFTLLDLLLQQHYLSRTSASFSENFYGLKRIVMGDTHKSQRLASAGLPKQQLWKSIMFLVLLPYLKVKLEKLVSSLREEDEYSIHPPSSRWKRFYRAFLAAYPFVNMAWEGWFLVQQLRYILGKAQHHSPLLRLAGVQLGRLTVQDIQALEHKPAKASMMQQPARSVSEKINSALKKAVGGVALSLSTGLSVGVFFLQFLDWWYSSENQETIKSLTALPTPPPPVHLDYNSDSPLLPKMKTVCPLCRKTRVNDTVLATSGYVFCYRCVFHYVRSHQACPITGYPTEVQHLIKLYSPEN
UniProt O75340: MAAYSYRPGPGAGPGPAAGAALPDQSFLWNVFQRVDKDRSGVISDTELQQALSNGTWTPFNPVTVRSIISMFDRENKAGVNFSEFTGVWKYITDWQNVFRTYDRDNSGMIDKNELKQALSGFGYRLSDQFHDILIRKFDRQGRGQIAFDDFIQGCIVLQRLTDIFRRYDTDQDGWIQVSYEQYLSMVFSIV
UniProt O15067: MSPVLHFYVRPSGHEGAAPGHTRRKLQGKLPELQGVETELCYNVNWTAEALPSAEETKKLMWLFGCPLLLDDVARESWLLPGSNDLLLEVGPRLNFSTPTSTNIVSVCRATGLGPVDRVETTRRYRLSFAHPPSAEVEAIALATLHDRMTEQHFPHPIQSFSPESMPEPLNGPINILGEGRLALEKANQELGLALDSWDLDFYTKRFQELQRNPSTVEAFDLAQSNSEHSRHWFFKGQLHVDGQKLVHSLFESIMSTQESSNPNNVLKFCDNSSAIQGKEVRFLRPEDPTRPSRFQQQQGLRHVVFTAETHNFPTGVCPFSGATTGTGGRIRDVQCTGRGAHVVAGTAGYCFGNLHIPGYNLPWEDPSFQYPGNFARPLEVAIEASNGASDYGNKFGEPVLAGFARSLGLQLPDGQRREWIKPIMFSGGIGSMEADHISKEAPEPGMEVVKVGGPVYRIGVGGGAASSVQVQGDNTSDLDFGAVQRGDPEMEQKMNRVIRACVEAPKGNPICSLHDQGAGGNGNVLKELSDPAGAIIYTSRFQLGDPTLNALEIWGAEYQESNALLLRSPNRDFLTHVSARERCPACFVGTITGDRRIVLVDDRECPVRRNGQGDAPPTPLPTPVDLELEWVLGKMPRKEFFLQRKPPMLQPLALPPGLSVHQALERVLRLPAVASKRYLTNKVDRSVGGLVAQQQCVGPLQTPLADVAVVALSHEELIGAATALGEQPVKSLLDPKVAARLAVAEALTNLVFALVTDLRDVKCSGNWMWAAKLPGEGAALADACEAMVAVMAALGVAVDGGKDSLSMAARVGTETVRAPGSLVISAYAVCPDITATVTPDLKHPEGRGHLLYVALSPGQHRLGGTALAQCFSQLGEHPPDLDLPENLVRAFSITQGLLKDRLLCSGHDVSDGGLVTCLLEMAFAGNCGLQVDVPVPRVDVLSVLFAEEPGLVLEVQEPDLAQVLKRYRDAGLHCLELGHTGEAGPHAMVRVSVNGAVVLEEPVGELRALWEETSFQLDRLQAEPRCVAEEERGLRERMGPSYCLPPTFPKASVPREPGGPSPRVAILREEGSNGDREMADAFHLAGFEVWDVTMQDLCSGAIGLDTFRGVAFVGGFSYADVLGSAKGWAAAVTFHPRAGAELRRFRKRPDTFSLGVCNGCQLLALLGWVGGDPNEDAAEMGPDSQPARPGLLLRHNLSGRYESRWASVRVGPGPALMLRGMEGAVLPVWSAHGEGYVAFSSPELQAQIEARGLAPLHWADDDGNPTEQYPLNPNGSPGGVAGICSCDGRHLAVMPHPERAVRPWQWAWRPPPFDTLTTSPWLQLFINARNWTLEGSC
UniProt Q9BYE7: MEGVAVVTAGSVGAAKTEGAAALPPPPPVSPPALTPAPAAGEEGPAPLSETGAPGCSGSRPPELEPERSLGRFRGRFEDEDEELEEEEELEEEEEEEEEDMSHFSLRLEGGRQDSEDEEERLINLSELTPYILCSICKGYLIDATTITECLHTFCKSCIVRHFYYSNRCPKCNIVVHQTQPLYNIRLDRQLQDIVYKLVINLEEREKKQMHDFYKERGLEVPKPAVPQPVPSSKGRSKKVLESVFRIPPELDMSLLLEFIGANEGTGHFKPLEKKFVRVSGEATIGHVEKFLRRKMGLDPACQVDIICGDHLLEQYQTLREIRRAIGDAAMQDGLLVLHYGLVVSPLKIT
UniProt P35558, whole entry, looked up: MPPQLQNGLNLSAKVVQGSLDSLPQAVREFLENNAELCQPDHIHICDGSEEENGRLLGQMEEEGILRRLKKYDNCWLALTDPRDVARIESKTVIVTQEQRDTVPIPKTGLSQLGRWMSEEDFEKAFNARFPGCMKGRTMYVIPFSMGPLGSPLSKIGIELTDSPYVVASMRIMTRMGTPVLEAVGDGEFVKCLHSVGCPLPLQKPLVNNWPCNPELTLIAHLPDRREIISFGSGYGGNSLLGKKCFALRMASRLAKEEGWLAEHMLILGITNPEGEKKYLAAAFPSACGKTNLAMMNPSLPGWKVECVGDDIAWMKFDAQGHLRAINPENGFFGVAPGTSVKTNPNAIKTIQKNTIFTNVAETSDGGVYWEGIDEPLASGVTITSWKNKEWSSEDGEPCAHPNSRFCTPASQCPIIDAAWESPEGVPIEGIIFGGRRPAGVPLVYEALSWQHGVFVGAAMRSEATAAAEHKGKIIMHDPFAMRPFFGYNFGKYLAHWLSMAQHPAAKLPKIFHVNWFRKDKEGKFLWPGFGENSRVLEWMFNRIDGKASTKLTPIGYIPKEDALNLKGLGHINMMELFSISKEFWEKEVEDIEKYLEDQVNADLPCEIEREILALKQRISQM

Key:
Experiment in all cases: log2 fold change, soluble protein after heating vs DMSO (PISA); higher = thermal stabilisation; K562 lysate, 10 uM; active = over 0.2 and 3.5 SD of the protein, either way, in both replicates (recomputed)
[1] = compound: C1=CC=C(C=C1)[C@H](COC2=CC3=C(C=C2)NC(=O)N3)NC(=O)C4=CC=CN(C4=O)CC5=CC(=C(C=C5)F)F
Summary of the method: (§1)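 Quantification was by TMTpro 16plex LC-MS/MS with equalised channel sums, applied to the supernatant after 21,000xg for 90 min. Samples were crude K562 extract at 1 mg/mL protein in PBS pH 7.4 with 1 mM MgCl2, treated with 10 μM compound for 30 min, heated for 3 min across 48°C-58°C, pooled and brought to 0.5% NP-40 at 4°C. Values are log-two fold changes in thermal stability relative to solvent controls, from duplicates.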

[2] = compound: CC1=C(SC2=C1C(=N[C@H](C3=NN=C(N32)C)CC(=O)N)C4=CC=C(C=C4)Cl)C
Summary of the method: as §1

[3] = compound: CC1=C2C(=CC=C1)N=C(N(C2=O)C3=CC=CC=C3C)CN4C=NC5=C(N=CN=C54)N
Summary of the method: as §1

[4] = compound: Cc1sc2c(c1C)C(c1ccc(Cl)cc1)=N[C@@H](CC(=O)OC(C)(C)C)c1nnc(C)n1-2
Summary of the method: as §1

[5] = compound: c1ccc([C@@H]2C[C@H]2NC2CCNCC2)cc1
Summary of the method: as §1

Measured: log2 fold change

PDCD5 (UniProt O14737)
inactive: [1] -0.009 | [2] -0.021 | [3] -0.012 | [4] 0.019 | [5] -0.099

PFDN1 (UniProt O60925)
inactive: [1] 0.019 | [2] -0.012 | [3] -0.035 | [4] 0.012 | [5] 0.132

PES1 (UniProt O00541)
inactive: [1] 0.027 | [2] 0.016 | [3] 0.019 | [4] 0.016 | [5] 0.02

PDLIM4 (UniProt P50479)
inactive: [1] 0.002 | [2] 0.055 | [3] -0.028 | [4] 0.031 | [5] -0.012

PDIA6 isoform 2 (UniProt Q15084)
inactive: [1] 0.049 | [2] -0.001 | [3] 0.008 | [4] -0.015 | [5] 0.005

PCBP2 (UniProt F8VRH0)
inactive: [5] 0.232

PEMT isoform 2 (UniProt Q9UBM1)
inactive: [3] 0.087 | [5] 0.089

PCMTD1 (UniProt Q96MG8)
inactive: [3] -0.067

PFN3 (UniProt P60673)
inactive: [3] 0.072 | [5] -0.004

PDE4DIP (UniProt E9PS60)
inactive: [3] 0.074 | [4] -0.12 | [5] -0.257

PDE6D (UniProt O43924)
inactive: [1] 0.054 | [2] -0.025 | [4] -0.052 | [5] -0.187

PFN1 (UniProt I3L3D5)
inactive: [1] 0.007 | [2] 0.065 | [5] 0.164

PCYOX1L (UniProt Q8NBM8)
inactive: [1] 0.017 | [2] 0.016 | [3] 0.068 | [4] 0.001 | [5] -0.01

PCGF1 (UniProt Q9BSM1)
inactive: [3] 0.085 | [4] -0.008 | [5] -0.103

PDIA5 (UniProt Q14554)
inactive: [1] 0.011 | [2] 0 | [3] -0.012 | [4] -0.018 | [5] 0

PEX19 (UniProt P40855)
inactive: [1] -0.033 | [2] -0.031 | [3] -0.012 | [4] -0.06 | [5] -0.084

PCID2 (UniProt Q5JVF3)
inactive: [1] 0.013 | [2] -0.021 | [3] 0.039 | [4] 0.008 | [5] 0.036

PER2 (UniProt O15055)
inactive: [3] -0.108 | [5] 0.171

PDIK1L (UniProt Q8N165)
inactive: [4] -0.084

PEX2 (UniProt P28328)
inactive: [1] -0.243 | [2] 0.053 | [3] -0.048 | [4] 0.116 | [5] -0.365

PARP4 (UniProt Q9UKK3)
inactive: [1] -0.132 | [2] 0.081 | [4] -0.076 | [5] 0.095

PDIA4, A0A499FI48
inactive: [4] 0.083 | [5] 0.564

PFKFB4 (UniProt Q16877)
inactive: [1] -0.066 | [2] 0.023 | [3] 0.059 | [4] -0.053 | [5] -0.007

PDE3B (UniProt Q13370)
inactive: [4] 0.059 | [5] -0.005

PDE2A (UniProt O00408)
inactive: [1] 0.012 | [2] 0.067 | [3] 0.163 | [4] 0.039 | [5] 0

PER1 (UniProt O15534)
inactive: [4] 0.501 | [5] 0.089

PARP12 (UniProt Q9H0J9)
inactive: [1] -0.071 | [2] 0.056 | [4] 0.023

PEX5 (UniProt J3KPV0)
inactive: [3] 0.231

PARPBP (UniProt Q9NWS1)
inactive: [1] 0.111 | [2] 0.001 | [3] 0.179 | [4] -0.142 | [5] -0.143

PDP1 isoform 2 (UniProt Q9P0J1)
inactive: [4] -0.045

PARP2 (UniProt Q9UGN5)
inactive: [1] 0.036 | [2] -0.052 | [3] 0.035 | [4] -0.021 | [5] 0.052

Reprinted from the results shown (two entries):
PDP1 isoform 2 (UniProt Q9P0J1)
inactive: [4] -0.045

PARP2 (UniProt Q9UGN5)
inactive: [1] 0.036 | [2] -0.052 | [3] 0.035 | [4] -0.021 | [5] 0.052

More records

PEX12 (UniProt O00623)
inactive: [5] -0.212

PDPK1 (UniProt O15530)
inactive: [2] 0 | [3] -0.035 | [4] 0.022 | [5] -0.069

PCMTD2 (UniProt Q9NV79)
inactive: [3] 0.204

PEX3 (UniProt P56589)
inactive: [4] -0.122 | [5] 0.198

PEX1 (UniProt O43933)
inactive: [3] 0.055

PBRM1 (UniProt Q86U86)
inactive: [1] -0.034 | [2] -0.046 | [4] 0.089 | [5] 0.25

PDCD6 isoform 2 (UniProt O75340)
inactive: [5] 0.073

PFAS (UniProt O15067)
inactive: [1] 0.007 | [2] 0.017 | [3] 0.02 | [4] 0.042 | [5] 0.023

PEX6 (UniProt Q13608)
inactive: [1] -0.064 | [2] -0.135 | [4] 0.009 | [5] -0.073

PCGF6 (UniProt Q9BYE7)
inactive: [3] 0.003 | [4] 0.083 | [5] 0.051

PCK1 (UniProt P35558)
inactive: [1] 0.088 | [2] -0.036 | [3] 0.175 | [5] -0.552

PCCB (UniProt P05166)
inactive: [1] 0.033 | [2] -0.01 | [3] -0.004 | [4] -0.004 | [5] 0.023
